According to EP1584686A1, “Progenitor cell preservation factors and related methods and products” (ImClone Systems Incorporated, priority 1999, dated 2001):
No constants are given. Whether binding was seen depends on the method and setting. Some results given as binding are weak or reduced against the parent protein; the word gives no strength.

The chains behind the UniProt entries cited, without tags or fusion partners. Residues count along the entry.
UniProt P01012, residues 2-386: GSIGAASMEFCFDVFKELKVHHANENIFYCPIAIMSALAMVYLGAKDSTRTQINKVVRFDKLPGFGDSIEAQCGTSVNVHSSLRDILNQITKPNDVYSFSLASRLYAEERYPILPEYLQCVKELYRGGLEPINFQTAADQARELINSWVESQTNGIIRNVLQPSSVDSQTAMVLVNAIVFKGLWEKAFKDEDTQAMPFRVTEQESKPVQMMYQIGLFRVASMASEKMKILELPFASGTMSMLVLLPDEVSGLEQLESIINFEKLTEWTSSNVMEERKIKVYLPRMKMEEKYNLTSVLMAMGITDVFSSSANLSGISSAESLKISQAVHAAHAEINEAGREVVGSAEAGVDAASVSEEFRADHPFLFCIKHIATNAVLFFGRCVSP

Assays:
[1] = molecular target: Ovalbumin immobilised on Sepharose / gel affinity column (UniProt P01012); test: batch binding of tobacco leaf extract to ovalbumin-Sepharose, elution with 200 mM trehalose
[2] = molecular target: Ovalbumin immobilised on Sepharose / gel affinity column (UniProt P01012); test: ovalbumin gel affinity column, elution with 200 mM trehalose

Row | binding [1] | binding [2] | Binder
1 | binds | – | Recombinant Pv-FRIL produced in transformed tobacco (pM-SpPv-FRIL) and purified from the leaves (protein) AQSLSFNFTKFDLDQKDLIFQGDATSTNNVLQLTKLDSGGNPVGASVGRVLFSAPFHLWENSMAVSSFETNLTIQISTPHPYYAADGFAFFLAPHDTVIPPNSWGKFLGLYSNVFRNSPTSENQSFGDVNTDSRVVAVEFDTFPNANIDPNYRHIGIDVNSIKSKETARWEWQNGKTATARISYNSASKKSTVTTFYPGMEVVALSHDVDLHAELPEWVRVGLSASTGEEKQKNTIISWSFTSSLKNNEVKEPKEDMYIANVVRSYTWINDVLSYISNK
2 | – | binds | YamFRIL purified from Sphenostylis stenocarpa (yam bean) seeds (protein) AQSVSFTFTKFDSDQKDLMFQGHTISSSNVIQLTKLDSNGNPVSTSVGRVLYSAPLRLWESSTVVSTFETTFTFQISTPYTSPPGDGLAFFLAPYDTVIPPNSAGNLLGLFPNLNALRNSTTSKETTIDVNAASNNVVAVEFDTYPNDNIGDPRYKHIGIDVNSIRSKATVAWDWQNGKTATAHISYNSASKRLSVTTFYPGGKAVSLSHDVELTQVLPQWIRVGFSASTGLEK
